Taken from: PubChem BioAssay AID1508597 (Cure First, 2020)

- Aim: 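Knock-downs altering ovarian cancer cell survival with or without PARP inhibitor rucaparib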 (primary screen)
- Cell system: human ovarian carcinoma lines grown from tumours: OCI-P5x (papillary serous) and OCI-C5x (clear cell)
- Reagent: siRNA pool against human genes, 1.25 pmol siRNA per well
- Timing: 72 h or 96 h, depending on the cell culture
- Conditions: rucaparib 20 µM (about IC30) or vehicle, present until read-out
- Rucaparib or vehicle: Rucaparib
- Cell line: OCI-C5x (clear cell)
- Detection: 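Luminescent ATP-based viability assay read 72 or 96 h after transfection, depending on culture, given as normalised percent viability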
- Direction: viability, normalised: higher = more viable cells remaining
- Active means: 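Active when normalised viability falls below 80 percent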
- Calls: active = viability under 80%; inactive = viability 80% or more
This is a random part of the about 2,100 reagents, under one of the conditions tested. 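Calls flag viability under 80% in either arm, not effects specific to rucaparib; the reference for percent is not stated.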 A number with no mark means an inactive call. A reagent listed more than once was tested more than once; the source does not tell the runs apart. Not given: the 100% reference.

AURKB (GeneID 9212), technical replicate 1 | viability, normalised (%): 62.6 (active)
AURKB (GeneID 9212), technical replicate 1 | viability, normalised (%): 51.8 (active)
AURKB (GeneID 9212), technical replicate 2 | viability, normalised (%): 47.4 (active)
AURKB (GeneID 9212), technical replicate 2 | viability, normalised (%): 61.5 (active)
AURKB (GeneID 9212), technical replicate 3 | viability, normalised (%): 39.1 (active)
AURKB (GeneID 9212), technical replicate 3 | viability, normalised (%): 59.6 (active)
MST1R (GeneID 4486), technical replicate 1 | viability, normalised (%): 28.9 (active)
MST1R (GeneID 4486), technical replicate 2 | viability, normalised (%): 47.7 (active)
MST1R (GeneID 4486), technical replicate 3 | viability, normalised (%): 37.5 (active)
MAP2K5 (GeneID 5607), technical replicate 1 | viability, normalised (%): 55.2 (active)
MAP2K5 (GeneID 5607), technical replicate 2 | viability, normalised (%): 79.5 (active)
MAP2K5 (GeneID 5607), technical replicate 3 | viability, normalised (%): 64.6 (active)
POLR3K (GeneID 51728), technical replicate 1 | viability, normalised (%): 38.9 (active)
POLR3K (GeneID 51728), technical replicate 2 | viability, normalised (%): 45.9 (active)
POLR3K (GeneID 51728), technical replicate 3 | viability, normalised (%): 40 (active)
TWF2 (GeneID 11344), technical replicate 1 | viability, normalised (%): 26.8 (active)
TWF2 (GeneID 11344), technical replicate 2 | viability, normalised (%): 37.5 (active)
TWF2 (GeneID 11344), technical replicate 3 | viability, normalised (%): 38.6 (active)
XPO5 (GeneID 57510), technical replicate 1 | viability, normalised (%): 87.8
XPO5 (GeneID 57510), technical replicate 2 | viability, normalised (%): 75 (active)
XPO5 (GeneID 57510), technical replicate 3 | viability, normalised (%): 62.4 (active)
SMARCA5 (GeneID 8467), technical replicate 1 | viability, normalised (%): 61 (active)
SMARCA5 (GeneID 8467), technical replicate 2 | viability, normalised (%): 47.9 (active)
SMARCA5 (GeneID 8467), technical replicate 3 | viability, normalised (%): 54.3 (active)
HDAC6 (GeneID 10013), technical replicate 1 | viability, normalised (%): 44.6 (active)
HDAC6 (GeneID 10013), technical replicate 2 | viability, normalised (%): 42.5 (active)
HDAC6 (GeneID 10013), technical replicate 3 | viability, normalised (%): 46.8 (active)
TDRD10 (GeneID 126668), technical replicate 1 | viability, normalised (%): 68.2 (active)
TDRD10 (GeneID 126668), technical replicate 2 | viability, normalised (%): 66.5 (active)
TDRD10 (GeneID 126668), technical replicate 3 | viability, normalised (%): 52.3 (active)
CHUK (GeneID 1147), technical replicate 1 | viability, normalised (%): 48.1 (active)
CHUK (GeneID 1147), technical replicate 2 | viability, normalised (%): 49.7 (active)
CHUK (GeneID 1147), technical replicate 3 | viability, normalised (%): 56.2 (active)
CCNH (GeneID 902), technical replicate 1 | viability, normalised (%): 42.8 (active)
CCNH (GeneID 902), technical replicate 2 | viability, normalised (%): 43.5 (active)
CCNH (GeneID 902), technical replicate 3 | viability, normalised (%): 43.8 (active)
GRK7 (GeneID 131890), technical replicate 1 | viability, normalised (%): 63.5 (active)
GRK7 (GeneID 131890), technical replicate 2 | viability, normalised (%): 64.3 (active)
GRK7 (GeneID 131890), technical replicate 3 | viability, normalised (%): 58.3 (active)
DPYD (GeneID 1806), technical replicate 1 | viability, normalised (%): 51.1 (active)
DPYD (GeneID 1806), technical replicate 2 | viability, normalised (%): 69.4 (active)
DPYD (GeneID 1806), technical replicate 3 | viability, normalised (%): 64.9 (active)

In a second layout: results already given
Gene	technical replicate	viability, normalised (%)
GRK7 (GeneID 131890)	2	64.3 (active)
GRK7 (GeneID 131890)	3	58.3 (active)
DPYD (GeneID 1806)	1	51.1 (active)
DPYD (GeneID 1806)	2	69.4 (active)
